These are yes or no findings as the source states them, for the method shown. Binding seen in cells or lysates may run through a third protein. Some entries that bind do so weakly or less than the wild type.
Key:
[1] = biological target: Endogenous HPCAL1 of mouse liver tumors (mouse (endogenous in liver tumors)) (UniProt P62748); assay: co-IP; endogenous HPCAL1 from MYC-induced mouse liver tumors immunoprecipitated with anti-HPCAL1 antibody or isotype IgG control; immunoblot
[2] = biological target: Endogenous RUVBL1 of mouse liver tumors (mouse (endogenous in liver tumors)) (UniProt P60122); assay: co-IP; lysates of DEN-induced liver tumors from WT and Hpcal1-/- mice; Co-IP and immunoblot

The chains behind the UniProt entries cited, without tags or fusion partners.
UniProt Q9DC40: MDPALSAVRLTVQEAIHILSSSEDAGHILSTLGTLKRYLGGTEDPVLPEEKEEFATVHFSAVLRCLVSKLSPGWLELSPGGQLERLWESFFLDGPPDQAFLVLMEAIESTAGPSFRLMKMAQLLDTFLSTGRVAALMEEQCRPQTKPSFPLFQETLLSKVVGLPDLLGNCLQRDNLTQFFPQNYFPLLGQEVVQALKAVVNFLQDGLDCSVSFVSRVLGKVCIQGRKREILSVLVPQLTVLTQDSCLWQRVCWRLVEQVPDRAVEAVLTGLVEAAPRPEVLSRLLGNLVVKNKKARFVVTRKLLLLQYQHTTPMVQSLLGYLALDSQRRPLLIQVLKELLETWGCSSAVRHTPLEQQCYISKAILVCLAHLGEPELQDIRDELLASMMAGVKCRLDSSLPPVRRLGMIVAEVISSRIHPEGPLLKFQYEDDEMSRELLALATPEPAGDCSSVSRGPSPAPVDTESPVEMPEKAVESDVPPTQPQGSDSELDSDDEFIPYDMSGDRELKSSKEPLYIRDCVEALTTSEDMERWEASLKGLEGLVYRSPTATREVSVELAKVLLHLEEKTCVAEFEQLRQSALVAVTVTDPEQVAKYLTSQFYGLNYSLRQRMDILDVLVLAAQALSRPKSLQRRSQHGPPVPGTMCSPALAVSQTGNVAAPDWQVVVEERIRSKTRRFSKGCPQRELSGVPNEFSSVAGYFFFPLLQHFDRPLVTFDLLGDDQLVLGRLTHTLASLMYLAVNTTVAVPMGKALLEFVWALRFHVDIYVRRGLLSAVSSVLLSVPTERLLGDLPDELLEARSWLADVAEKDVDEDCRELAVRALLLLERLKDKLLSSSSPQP
UniProt Q91V83: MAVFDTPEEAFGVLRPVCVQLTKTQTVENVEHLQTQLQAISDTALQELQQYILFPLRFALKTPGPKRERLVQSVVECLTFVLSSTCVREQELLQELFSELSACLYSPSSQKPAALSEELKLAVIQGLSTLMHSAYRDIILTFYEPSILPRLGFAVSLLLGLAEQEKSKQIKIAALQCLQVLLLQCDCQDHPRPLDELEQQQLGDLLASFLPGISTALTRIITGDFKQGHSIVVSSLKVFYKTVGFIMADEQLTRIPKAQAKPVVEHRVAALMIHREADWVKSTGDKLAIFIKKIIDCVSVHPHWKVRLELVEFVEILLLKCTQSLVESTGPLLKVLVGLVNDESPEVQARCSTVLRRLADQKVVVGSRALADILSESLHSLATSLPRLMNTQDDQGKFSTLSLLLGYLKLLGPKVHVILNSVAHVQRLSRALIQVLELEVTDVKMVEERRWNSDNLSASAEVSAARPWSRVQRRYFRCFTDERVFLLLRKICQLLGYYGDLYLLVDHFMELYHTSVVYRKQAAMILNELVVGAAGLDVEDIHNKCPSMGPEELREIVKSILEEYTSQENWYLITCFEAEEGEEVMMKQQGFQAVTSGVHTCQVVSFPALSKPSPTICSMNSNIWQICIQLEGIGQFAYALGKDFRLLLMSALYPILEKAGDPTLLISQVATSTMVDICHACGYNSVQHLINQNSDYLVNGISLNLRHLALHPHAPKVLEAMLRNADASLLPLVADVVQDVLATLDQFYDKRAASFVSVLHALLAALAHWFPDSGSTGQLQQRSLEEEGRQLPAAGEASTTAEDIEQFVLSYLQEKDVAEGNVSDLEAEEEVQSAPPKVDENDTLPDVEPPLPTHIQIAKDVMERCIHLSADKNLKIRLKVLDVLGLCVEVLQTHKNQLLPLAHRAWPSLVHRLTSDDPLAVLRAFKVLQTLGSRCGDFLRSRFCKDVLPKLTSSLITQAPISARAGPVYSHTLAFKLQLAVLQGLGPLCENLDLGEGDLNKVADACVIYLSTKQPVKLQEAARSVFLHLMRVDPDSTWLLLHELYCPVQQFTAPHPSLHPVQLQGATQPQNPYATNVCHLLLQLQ

Row | binding [1] | binding [2] | Substance
1 | binds | – | Endogenous RUVBL1 of mouse liver tumors (from UniProt P60122 1-456)
2 | – | binds | Endogenous TEL2 of mouse liver tumors (from UniProt Q9DC40 1-840)
3 | – | binds | Endogenous TTI1 of mouse liver tumors (from UniProt Q91V83 1-1085)
